In patent US20020192774A1, “Method for processing lignocellulosic material” (priority 2000, published 2002):

Key:
[1] = system: Thermoanaerobacter mathranii A3M4; experiment: Potential fermentation inhibitors during T. mathranii A3M4 fermentation of wet oxidised wheat straw medium; conditions: for concentration at T. mathranii, end / Ww-treatment, start: after five days at 70° C., pH 6.8; for change of concentration after xylose fermentation by T. mathranii: thermophilic fermentation step, in words
Saccharomyces cerevisiae = experiment: Potential fermentation inhibitors during S. cerevisiae fermentation of wet oxidised wheat straw medium; conditions: for concentration at S. cerevisiae, end / T. mathranii, start: after five days at 30° C., pH 6.0; for concentration at S. cerevisiae, start: wet oxidised wheat straw medium 60 g/l straw, before yeast fermentation
[2] = system: consortium of thermophilic methanogenic Archaea; experiment: Thermophilic anaerobic wastewater treatment (methane production) of ethanol fermentation effluent; conditions: after anaerobic wastewater treatment at 55° C.

For `CC(=O)O` [Acetic acid], the “concentration at T. mathranii, end / Ww-treatment, start” value [1] was 33.2 mg/L.
In the case of `COc1cc(C(=O)O)cc(OC)c1O` [Syringic acid], the “concentration at S. cerevisiae, end / T. mathranii, start” value (Saccharomyces cerevisiae) is reported as 16.1 mg/L, the “metabolised by S. cerevisiae” value (Saccharomyces cerevisiae; mesophilic hexose fermentation step, in words) is reported as “partly metabolised” and the “concentration at S. cerevisiae, start” value (Saccharomyces cerevisiae) is reported as 20.2 mg/L. For the same compound, the “concentration at T. mathranii, end / Ww-treatment, start” value [1] was 19.0 mg/L, the “change of concentration after xylose fermentation by T. mathranii” value [1] was “reverted to its initial level” and the “concentration at Ww-treatment, end” value [2] was 0.1 mg/L.
`Oc1ccccc1` [phenol] was tested, and the “concentration at S. cerevisiae, end / T. mathranii, start” value (Saccharomyces cerevisiae) was 3.9 mg/L, the “concentration at S. cerevisiae, start” value (Saccharomyces cerevisiae) was 4.5 mg/L and the “concentration at T. mathranii, end / Ww-treatment, start” value [1] was 3.8 mg/L. For the same compound, the “concentration at Ww-treatment, end” value [2] was 0.9 mg/L.
In the case of `COc1cc(C(C)=O)cc(OC)c1O` [Acetosyringone, 4-hydroxy-3,5dimethoxyacetophenone], the “concentration at T. mathranii, end / Ww-treatment, start” value [1] is reported as 20.0 mg/L.
In the case of `O=C(O)c1ccc(O)cc1` [4-hydroxybenzoic acid], the “concentration at T. mathranii, end / Ww-treatment, start” value [1] is reported as 26.0 mg/L and the “change of concentration after xylose fermentation by T. mathranii” value [1] is reported as “increase in the concentration”.
For `COc1cc(C=O)cc(OC)c1O` [syringaldehyd], the “concentration at S. cerevisiae, end / T. mathranii, start” value (Saccharomyces cerevisiae) was 3.2 mg/L, the “concentration at S. cerevisiae, start” value (Saccharomyces cerevisiae) was 3.6 mg/L and the “concentration at T. mathranii, end / Ww-treatment, start” value [1] was 2.6 mg/L. The “concentration at Ww-treatment, end” value [2] was 0.3 mg/L.
In the case of `COc1cc(C(C)=O)ccc1O` [Acetovanillione], the “concentration at T. mathranii, end / Ww-treatment, start” value [1] is reported as 4.9 mg/L.
For `COc1cccc(OC)c1O` [Syringol], the “concentration at T. mathranii, end / Ww-treatment, start” value [1] was 3.6 mg/L.
